Test results published in PubChem BioAssay AID445 (National Center for Advancing Translational Sciences (NCATS), 2006).
The list shows a part of the results. These are further read-outs of the screen, such as a control signal, another cell line or another target. No call is given for them. Compounds called inactive in the main read-out are mostly missing here. Words in brackets tell the shape of the fitted curve; partial curves, single points and poor fits give uncertain potencies.

Test: IkB Signaling
Settings: ABC-DLBCL IkBa-CBG/CBR dual luciferase ratio (green luciferase fused to IkBa over red control in OCI-Ly3 lymphoma cells), 4 h; measured here: control luc red channel unless noted
Procedure, shortened: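 Curves were fitted separately to fusion (green), unfused (red) and ratio luminescence, then classed by r2, magnitude and activity. Cells: OCI-Ly3, 4 h compound plus doxycycline at 37C; 10 uM MG-132 defined full response.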

Row | Compound | AC50
1 | CCCCCN1C(C(=O)c2ccccc2)=C(NC(C)=O)c2ccccc2S1(=O)=O | 20 µM [falling, partial curve]
2 | O=C(CSc1ncc2c(n1)-c1cc(Cl)ccc1N(Cc1ccccc1F)S2(=O)=O)Nc1cccc(C(F)(F)F)c1 | 12.6 µM [falling, partial curve]
3 | O=C(C1CC1)N1CCN(c2nc3c(F)cc(F)cc3s2)CC1 | 5.01 µM [rising, partial curve]
4 | COc1cccc2c1[C@H](CO)N1[C@H](C#N)[C@@H]3C[C@H](C(=O)O)[C@@H]([C@@H]1C2)N3C | 0.316 µM [falling, full curve]
5 | Cc1cc(Cl)ccc1OCC(=O)N(Cc1ccc(N(C)C)cc1)CC1CCCO1 (stereo unspecified) | 15.8 µM [falling, partial curve]
6 | O=C(O)c1ccc2c(c1)N(Cc1ccc(F)cc1Cl)C(=O)c1ccccc1S2 | 25.1 µM [falling, partial curve]
7 | O=C(CSc1nnc(NC(=O)c2ccco2)s1)NC1CCCCC1 | 0.631 µM [falling, full curve]
8 | COc1ccc(NC(=O)CCS(=O)(=O)c2nc(-c3ccc4c(c3)OCO4)cc(C(F)(F)F)n2)c(OC)c1 | 5.01 µM [falling, partial curve]
9 | Cc1ccc(-n2c(C)nc3oc4ccccc4c(=O)c3c2=O)cc1 | 0.02 µM [falling, full curve]
10 | CCOC(=O)c1ccc(NC(=O)CSc2nc(SC)ns2)cc1 | 25.1 µM [falling, partial curve]
11 | O=C(c1cc(-c2ccccc2)on1)N1CCN(C(=O)c2ccco2)CC1 | 20 µM [falling, partial curve]
12 | CCN(C(=O)c1cnc(N2CCOCC2)c2ccccc12)c1cc(C)ccc1C | 0.158 µM [falling, full curve, poor fit]
13 | O=C(c1ccc2c(c1)N(Cc1ccccc1)C(=O)c1ccccc1S2=O)N1CCC(Cc2ccccc2)CC1 (stereo unspecified) | 1 µM [falling, partial curve]
14 | CCCOc1ccc(C2=NC(c3ccc(F)cc3)=Nc3ccc(OC)cc3N2)cc1 | 39.8 µM [falling, single point]
15 | O=C(Oc1ccnc2cc(Cl)ccc12)N1CCCCCC1 | 12.6 µM [falling, partial curve]
16 | COc1ccccc1CNC(=O)c1ccc2c(c1)CCN2S(=O)(=O)c1ccc(Cl)cc1 | 10 µM [falling, partial curve]
17 | Clc1ccc(Nc2ncnc3c2cnn3-c2ccccc2)cc1 | 31.6 µM [falling, single point]
18 | COc1ccc2nc(N(Cc3cccnc3)C(=O)COc3ccccc3)sc2c1 | 3.16 µM [rising, partial curve]
19 | Cc1cccc(S(=O)Cc2ccc(C(=O)NC3CCCCCC3)o2)c1 (stereo unspecified) | 6.31 µM [falling, partial curve]
20 | CCn1c(C(=O)N2CCCC(C(=O)NCCCc3ccccc3)C2)cc2sccc21 (stereo unspecified) | 12.6 µM [falling, partial curve]
21 | Cc1c(-c2ccccc2)n(-c2ccccc2O)c2nc3c(c(=O)n(C)c(=O)n3C)n12 | 20 µM [falling, partial curve]

Row | Compound | AC50
22 | Clc1ccc(Nc2c(-c3ccccc3Cl)nc3ccc(Cl)cn23)cc1 | 6.31 µM [falling, partial curve]
23 | Cc1ccc(C(=O)Nc2cccc(C(=O)OCc3cc(=O)n4nc(C5CC5)sc4n3)c2)cc1 | 0.158 µM [falling, full curve]
24 | COCC(C)Nc1ncnc2c1cnn2-c1ccc(C)c(C)c1 (stereo unspecified) | 25.1 µM [falling, single point]
25 | CCOc1ccc(N2CC(NC(=O)C3CC3)CC2=O)cc1 (stereo unspecified) | 7.94 µM [falling, single point]
26 | Cc1ccnc(NC(=O)CSc2cc(=O)n(C)c3ccccc23)c1 | 3.16 µM [falling, full curve]
27 | CCCCN(CC)CCCNC(=O)Cn1ncc2c3ccccc3n(Cc3ccc(F)cc3)c2c1=O | 12.6 µM [falling, single point]
28 | O=C(Cn1nnc2c(cnn2-c2ccc(F)cc2)c1=O)OC1CCCCC1 | 31.6 µM [falling, partial curve]
29 | Cc1ccc(CN2CCCn3nc(C(=O)NCCc4cccc(C)c4)cc3C2=O)cc1 | 7.94 µM [falling, partial curve]
30 | Cc1nn(C)c2c1c(-c1ccccc1)cc(=O)n2CC(=O)NC(C)C | 6.31 µM [rising, single point]
31 | COc1ccc(CCNCc2ccc3c(c2)n(C)c(=O)n3C)cc1OC | 15.8 µM [rising, partial curve]
32 | CCc1ccccc1NC(=O)Cn1c(SCc2ccc(F)cc2)nc2ccncc21 | 12.6 µM [falling, partial curve]
33 | O=[N+]([O-])c1cc(-c2nc(-c3ccccc3)no2)ccc1N1CCOCC1 | 15.8 µM [falling, partial curve]
34 | COc1ccc(-c2nc(CCNC(=O)c3ccc(Br)o3)cs2)cc1 | 25.1 µM [falling, single point]
35 | COC(=O)c1[nH]c2ccccc2c1NC(=O)CN1CCN(c2cccc(OC)c2)C(C)C1 (stereo unspecified) | 15.8 µM [falling, partial curve]
36 | COc1ccc(-c2nc(CNS(=O)(=O)c3cccc(F)c3)cs2)cc1 | 20 µM [falling, partial curve]
37 | O=c1oc2ccccc2cc1-c1nc2ccccc2o1 | 10 µM [falling, partial curve]
38 | Cc1ccc(Nc2sc(C(=O)c3ccccc3)c(N)c2C(N)=O)cc1 | 10 µM [rising, partial curve, poor fit]
39 | O=C(Nc1ccc2c(c1)OCCO2)c1c(F)c(F)c(F)c(F)c1F | 3.16 µM [falling, partial curve]
40 | CCc1nn(CC(=O)Nc2ccc(NC(C)=O)cc2)c(=O)c2cc3sccc3n12 | 3.98 µM [rising, full curve]
41 | O=C(Cn1cnc2onc(-c3ccc(Cl)cc3)c2c1=O)Nc1ccc(F)cc1 | 3.16 µM [falling, partial curve]

Structural class: the entries above with fluorine
Row | Compound | AC50
2 | O=C(CSc1ncc2c(n1)-c1cc(Cl)ccc1N(Cc1ccccc1F)S2(=O)=O)Nc1cccc(C(F)(F)F)c1 | 12.6 µM [falling, partial curve]
3 | O=C(C1CC1)N1CCN(c2nc3c(F)cc(F)cc3s2)CC1 | 5.01 µM [rising, partial curve]
6 | O=C(O)c1ccc2c(c1)N(Cc1ccc(F)cc1Cl)C(=O)c1ccccc1S2 | 25.1 µM [falling, partial curve]
8 | COc1ccc(NC(=O)CCS(=O)(=O)c2nc(-c3ccc4c(c3)OCO4)cc(C(F)(F)F)n2)c(OC)c1 | 5.01 µM [falling, partial curve]
14 | CCCOc1ccc(C2=NC(c3ccc(F)cc3)=Nc3ccc(OC)cc3N2)cc1 | 39.8 µM [falling, single point]
27 | CCCCN(CC)CCCNC(=O)Cn1ncc2c3ccccc3n(Cc3ccc(F)cc3)c2c1=O | 12.6 µM [falling, single point]
28 | O=C(Cn1nnc2c(cnn2-c2ccc(F)cc2)c1=O)OC1CCCCC1 | 31.6 µM [falling, partial curve]
32 | CCc1ccccc1NC(=O)Cn1c(SCc2ccc(F)cc2)nc2ccncc21 | 12.6 µM [falling, partial curve]
36 | COc1ccc(-c2nc(CNS(=O)(=O)c3cccc(F)c3)cs2)cc1 | 20 µM [falling, partial curve]
39 | O=C(Nc1ccc2c(c1)OCCO2)c1c(F)c(F)c(F)c(F)c1F | 3.16 µM [falling, partial curve]
41 | O=C(Cn1cnc2onc(-c3ccc(Cl)cc3)c2c1=O)Nc1ccc(F)cc1 | 3.16 µM [falling, partial curve]
